# Laboratory results as given in patent publication US10010520B2, “Combined application of isothiocyanate compound and anti-cancer medicine” (JC (WUXI) COMPANY, INC., priority 2013, dated 2018).
# Test system: Jurkat E6-1 cells
# Assay: CellTiter-Glo cell viability, drugs alone or in combination, Jurkat E6-1 cells
# Assay type: cell-based
# Conditions: Homo sapiens, Jurkat E6.1, 72 h, read-out: (Bs)50, IC50 of drug B when used alone
# Method: isothiocyanates or derivatives thereof and DNA-effecting or influencing anticancer drugs, kinase-inhibiting anticancer drugs or hormonal anticancer drugs for endocrine therapy were administered separately or in combination to cancer cells. Cells were seeded into 384-well plates, and cultured for 24 hours in a CO2 incubator. Drugs were dissolved in DMSO and diluted to 9 concentration-gradients in 96 well plates, and then added to corresponding cells in 384-well plates, in which the concentrations of DMSO in 384 well plates were less than 1%. Triplicate wells were set for each concentration. After administration, the cells were cultured in the CO2 incubator for another 72 hrs, and afterwards, cell viability was tested by using CellTiter-Glo® reagent and luminescence detector. And IC50 values of each administration group were calculated.
# CI value was calculated by the following formula: CI=(Am)50/(As)50+(Bm)50/(Bs)50,
# Triplicate wells were set for each co-administration cell well.
# After administration, cells were cultured in the CO2 incubator for another 72 hrs, and afterwards, cell viability was tested by using CellTiter-Glo® reagent and luminescence detector. Curves were plotted according to concentrations or logarithm concentrations of drug A vs cell inhibition rate in the corresponding cell well, and IC50, i.e. (Am)50 was calculated. […]
smiles,measurement,value
"O=C(CCCCCCC(=O)Nc1ccccc1)NO [Vorinostat, vorinostat, reference compound]",IC50,1230 nM
